No constants are given. Whether binding was seen depends on the method and setting. In cells and extracts the contact can be indirect. A yes stands for co-enrichment or nearness to the bait. Other partners may have been found. Sequences can lack the tags named with a protein.
T1: DDIT4–APEX2 fusion protein (rigid linker) (human) (UniProt Q9NX09)
T1 sequence: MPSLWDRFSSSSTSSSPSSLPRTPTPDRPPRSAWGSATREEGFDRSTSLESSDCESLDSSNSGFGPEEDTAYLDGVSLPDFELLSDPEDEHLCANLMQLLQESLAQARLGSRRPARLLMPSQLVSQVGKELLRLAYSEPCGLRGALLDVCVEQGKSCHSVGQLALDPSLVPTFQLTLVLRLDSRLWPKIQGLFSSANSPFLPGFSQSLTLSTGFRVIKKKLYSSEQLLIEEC

Sequences of proteins named here, by UniProt entry; tags and fusion partners are left off.
UniProt P52952: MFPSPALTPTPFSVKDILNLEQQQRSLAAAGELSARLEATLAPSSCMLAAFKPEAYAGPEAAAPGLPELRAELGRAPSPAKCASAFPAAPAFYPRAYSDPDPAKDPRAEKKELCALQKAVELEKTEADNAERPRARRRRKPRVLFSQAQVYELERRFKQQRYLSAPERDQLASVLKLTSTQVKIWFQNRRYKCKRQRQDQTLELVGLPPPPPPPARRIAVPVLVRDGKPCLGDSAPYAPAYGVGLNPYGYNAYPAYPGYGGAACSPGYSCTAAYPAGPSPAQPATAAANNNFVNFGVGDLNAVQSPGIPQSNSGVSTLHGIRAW
UniProt Q86TB3: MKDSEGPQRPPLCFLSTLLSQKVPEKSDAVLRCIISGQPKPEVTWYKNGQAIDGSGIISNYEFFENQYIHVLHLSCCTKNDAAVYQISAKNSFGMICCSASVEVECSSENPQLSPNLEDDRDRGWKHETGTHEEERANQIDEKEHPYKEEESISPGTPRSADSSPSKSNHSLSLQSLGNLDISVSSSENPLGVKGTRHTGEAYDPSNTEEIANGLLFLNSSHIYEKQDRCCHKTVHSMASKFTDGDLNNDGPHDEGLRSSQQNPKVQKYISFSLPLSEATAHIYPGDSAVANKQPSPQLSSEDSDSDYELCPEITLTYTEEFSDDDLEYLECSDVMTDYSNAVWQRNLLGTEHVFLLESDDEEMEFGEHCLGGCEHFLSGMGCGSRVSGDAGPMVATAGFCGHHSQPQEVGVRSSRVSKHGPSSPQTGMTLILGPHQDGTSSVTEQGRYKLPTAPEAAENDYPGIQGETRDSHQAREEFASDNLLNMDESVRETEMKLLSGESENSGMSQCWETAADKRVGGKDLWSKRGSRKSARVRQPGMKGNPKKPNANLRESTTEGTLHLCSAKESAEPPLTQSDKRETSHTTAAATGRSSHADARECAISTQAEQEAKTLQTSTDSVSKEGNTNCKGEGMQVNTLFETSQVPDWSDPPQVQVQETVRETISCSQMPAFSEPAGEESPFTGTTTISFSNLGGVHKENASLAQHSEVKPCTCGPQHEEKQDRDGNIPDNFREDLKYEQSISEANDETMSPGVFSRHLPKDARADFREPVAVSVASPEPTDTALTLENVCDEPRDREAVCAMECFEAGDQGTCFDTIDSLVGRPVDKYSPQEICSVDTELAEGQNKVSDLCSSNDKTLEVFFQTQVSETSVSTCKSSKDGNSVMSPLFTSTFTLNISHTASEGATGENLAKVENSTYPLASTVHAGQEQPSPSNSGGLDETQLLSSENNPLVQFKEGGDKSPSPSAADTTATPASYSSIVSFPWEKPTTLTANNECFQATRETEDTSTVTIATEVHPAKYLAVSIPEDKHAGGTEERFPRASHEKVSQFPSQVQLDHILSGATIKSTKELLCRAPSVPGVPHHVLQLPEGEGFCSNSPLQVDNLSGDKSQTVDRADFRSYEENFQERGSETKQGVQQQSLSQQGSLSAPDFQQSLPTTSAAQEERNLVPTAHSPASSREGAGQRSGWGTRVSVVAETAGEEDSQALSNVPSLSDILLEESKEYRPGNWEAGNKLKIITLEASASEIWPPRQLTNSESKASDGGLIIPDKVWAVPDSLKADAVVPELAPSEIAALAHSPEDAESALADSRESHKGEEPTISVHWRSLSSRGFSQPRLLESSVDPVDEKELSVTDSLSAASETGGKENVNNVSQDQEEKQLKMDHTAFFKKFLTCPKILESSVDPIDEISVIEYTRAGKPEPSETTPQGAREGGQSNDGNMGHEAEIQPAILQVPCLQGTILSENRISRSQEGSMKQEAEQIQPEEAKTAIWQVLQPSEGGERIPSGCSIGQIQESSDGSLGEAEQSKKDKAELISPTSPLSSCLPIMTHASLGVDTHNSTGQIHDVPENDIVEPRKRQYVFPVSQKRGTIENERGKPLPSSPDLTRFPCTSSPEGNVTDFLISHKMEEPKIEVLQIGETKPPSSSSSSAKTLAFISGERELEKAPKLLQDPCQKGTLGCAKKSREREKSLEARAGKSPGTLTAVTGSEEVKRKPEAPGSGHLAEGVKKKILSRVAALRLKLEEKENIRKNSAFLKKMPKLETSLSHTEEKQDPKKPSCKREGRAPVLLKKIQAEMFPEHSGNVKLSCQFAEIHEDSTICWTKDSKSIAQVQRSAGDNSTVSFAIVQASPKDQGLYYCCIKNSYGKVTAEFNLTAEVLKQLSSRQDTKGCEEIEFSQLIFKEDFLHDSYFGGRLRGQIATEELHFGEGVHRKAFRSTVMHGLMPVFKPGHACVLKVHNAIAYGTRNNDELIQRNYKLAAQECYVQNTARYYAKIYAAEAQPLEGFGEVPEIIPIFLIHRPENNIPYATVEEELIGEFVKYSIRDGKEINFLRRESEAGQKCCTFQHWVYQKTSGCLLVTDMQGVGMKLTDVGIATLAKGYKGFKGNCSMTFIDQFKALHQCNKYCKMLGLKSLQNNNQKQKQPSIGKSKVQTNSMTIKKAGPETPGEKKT
UniProt Q14532: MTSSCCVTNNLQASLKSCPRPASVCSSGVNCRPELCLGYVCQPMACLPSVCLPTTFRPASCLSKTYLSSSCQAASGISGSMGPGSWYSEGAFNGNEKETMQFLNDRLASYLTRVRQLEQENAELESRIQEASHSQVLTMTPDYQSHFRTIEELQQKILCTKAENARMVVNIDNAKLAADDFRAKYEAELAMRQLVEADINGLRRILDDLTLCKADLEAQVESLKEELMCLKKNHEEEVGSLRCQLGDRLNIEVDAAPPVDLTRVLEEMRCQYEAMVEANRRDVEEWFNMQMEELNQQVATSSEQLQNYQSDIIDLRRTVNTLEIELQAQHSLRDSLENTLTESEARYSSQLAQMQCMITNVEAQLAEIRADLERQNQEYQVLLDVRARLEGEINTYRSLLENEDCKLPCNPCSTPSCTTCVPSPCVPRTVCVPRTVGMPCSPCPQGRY
UniProt P62873: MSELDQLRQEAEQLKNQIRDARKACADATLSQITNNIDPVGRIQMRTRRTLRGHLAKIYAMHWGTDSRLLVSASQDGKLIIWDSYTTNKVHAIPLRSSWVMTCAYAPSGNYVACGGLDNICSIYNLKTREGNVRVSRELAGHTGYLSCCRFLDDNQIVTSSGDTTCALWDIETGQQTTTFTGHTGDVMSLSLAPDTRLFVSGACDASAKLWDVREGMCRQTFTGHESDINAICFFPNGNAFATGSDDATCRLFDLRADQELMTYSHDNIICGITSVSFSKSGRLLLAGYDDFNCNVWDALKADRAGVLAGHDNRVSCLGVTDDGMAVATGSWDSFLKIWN
UniProt O76009: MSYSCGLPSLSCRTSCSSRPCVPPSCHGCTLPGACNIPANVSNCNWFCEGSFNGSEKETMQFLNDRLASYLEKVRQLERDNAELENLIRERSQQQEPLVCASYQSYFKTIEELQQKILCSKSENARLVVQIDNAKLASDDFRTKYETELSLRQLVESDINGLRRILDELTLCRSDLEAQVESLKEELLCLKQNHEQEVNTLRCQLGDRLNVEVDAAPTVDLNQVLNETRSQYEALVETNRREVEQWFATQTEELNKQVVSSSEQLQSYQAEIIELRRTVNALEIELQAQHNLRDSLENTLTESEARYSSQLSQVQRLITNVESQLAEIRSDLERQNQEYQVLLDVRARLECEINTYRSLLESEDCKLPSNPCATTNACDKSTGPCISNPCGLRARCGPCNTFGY
UniProt P62491: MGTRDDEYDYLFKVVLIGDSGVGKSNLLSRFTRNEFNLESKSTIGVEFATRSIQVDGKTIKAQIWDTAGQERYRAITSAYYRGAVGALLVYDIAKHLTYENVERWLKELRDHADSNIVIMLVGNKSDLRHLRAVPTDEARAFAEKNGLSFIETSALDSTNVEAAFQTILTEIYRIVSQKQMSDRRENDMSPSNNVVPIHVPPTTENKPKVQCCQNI
UniProt O75821: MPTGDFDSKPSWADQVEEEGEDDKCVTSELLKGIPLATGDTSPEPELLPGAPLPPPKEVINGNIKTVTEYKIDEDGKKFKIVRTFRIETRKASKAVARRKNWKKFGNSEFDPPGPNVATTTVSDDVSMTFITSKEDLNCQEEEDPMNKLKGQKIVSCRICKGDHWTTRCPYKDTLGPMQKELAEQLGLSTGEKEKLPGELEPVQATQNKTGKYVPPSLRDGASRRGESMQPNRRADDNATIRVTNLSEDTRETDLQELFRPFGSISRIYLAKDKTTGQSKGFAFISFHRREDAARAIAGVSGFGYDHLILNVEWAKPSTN
UniProt P15531: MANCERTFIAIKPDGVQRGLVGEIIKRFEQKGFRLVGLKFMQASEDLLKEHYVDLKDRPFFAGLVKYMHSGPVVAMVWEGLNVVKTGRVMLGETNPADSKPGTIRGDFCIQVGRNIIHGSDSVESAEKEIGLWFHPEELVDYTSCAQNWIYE
UniProt Q86Y46: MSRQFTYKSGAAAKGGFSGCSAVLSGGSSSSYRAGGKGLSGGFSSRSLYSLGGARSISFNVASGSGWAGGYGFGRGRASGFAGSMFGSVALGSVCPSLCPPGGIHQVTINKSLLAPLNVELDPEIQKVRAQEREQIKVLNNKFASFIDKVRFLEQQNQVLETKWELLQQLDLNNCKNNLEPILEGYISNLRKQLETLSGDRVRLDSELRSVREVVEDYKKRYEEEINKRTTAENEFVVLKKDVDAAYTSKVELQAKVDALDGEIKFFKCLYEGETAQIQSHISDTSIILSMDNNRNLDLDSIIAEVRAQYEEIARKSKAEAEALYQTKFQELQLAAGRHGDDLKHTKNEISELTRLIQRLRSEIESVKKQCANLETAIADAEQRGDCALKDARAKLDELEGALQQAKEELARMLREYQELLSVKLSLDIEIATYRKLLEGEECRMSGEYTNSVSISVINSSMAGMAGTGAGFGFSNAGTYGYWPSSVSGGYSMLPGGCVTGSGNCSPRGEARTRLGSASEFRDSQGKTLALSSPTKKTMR
UniProt Q15323: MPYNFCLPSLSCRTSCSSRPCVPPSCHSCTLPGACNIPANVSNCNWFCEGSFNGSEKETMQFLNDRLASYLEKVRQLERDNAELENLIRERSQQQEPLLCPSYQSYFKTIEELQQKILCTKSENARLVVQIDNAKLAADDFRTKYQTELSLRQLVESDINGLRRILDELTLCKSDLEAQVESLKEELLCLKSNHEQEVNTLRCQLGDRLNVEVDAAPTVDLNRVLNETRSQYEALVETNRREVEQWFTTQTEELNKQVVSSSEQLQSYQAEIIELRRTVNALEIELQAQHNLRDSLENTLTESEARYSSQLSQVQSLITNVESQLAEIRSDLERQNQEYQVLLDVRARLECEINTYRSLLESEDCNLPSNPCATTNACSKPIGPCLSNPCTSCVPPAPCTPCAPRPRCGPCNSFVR
UniProt Q9UQE7: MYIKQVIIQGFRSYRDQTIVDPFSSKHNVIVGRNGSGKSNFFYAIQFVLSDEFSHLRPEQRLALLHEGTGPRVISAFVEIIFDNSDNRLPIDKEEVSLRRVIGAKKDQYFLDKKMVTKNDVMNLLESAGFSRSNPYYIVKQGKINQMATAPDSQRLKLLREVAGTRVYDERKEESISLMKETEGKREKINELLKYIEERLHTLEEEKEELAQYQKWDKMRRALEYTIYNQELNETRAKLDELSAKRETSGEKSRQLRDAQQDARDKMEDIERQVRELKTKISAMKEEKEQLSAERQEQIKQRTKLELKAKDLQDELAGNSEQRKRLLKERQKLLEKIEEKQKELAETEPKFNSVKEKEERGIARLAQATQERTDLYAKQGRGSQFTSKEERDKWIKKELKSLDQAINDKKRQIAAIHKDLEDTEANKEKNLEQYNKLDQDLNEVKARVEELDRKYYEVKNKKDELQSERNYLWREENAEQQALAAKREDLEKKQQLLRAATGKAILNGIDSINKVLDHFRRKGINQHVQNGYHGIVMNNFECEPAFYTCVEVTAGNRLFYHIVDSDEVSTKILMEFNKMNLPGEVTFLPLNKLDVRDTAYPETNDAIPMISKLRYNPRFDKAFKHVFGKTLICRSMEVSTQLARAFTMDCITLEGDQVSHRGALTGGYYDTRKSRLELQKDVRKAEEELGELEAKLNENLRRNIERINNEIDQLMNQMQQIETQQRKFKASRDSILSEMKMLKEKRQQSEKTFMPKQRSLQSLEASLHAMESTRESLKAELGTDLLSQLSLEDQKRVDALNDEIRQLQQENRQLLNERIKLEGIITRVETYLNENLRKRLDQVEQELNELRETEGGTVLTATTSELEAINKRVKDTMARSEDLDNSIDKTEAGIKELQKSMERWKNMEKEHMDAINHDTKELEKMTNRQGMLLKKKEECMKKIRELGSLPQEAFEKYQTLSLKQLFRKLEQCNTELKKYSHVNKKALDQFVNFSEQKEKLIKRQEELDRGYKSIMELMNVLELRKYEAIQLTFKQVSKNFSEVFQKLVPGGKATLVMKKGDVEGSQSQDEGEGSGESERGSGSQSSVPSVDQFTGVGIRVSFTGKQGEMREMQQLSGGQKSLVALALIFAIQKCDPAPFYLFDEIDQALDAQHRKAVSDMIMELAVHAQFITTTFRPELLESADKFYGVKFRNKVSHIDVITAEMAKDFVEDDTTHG


What follows are molecules tested against T1, DDIT4–APEX2 fusion protein (rigid linker) (human) (assay: proximity labelling; DDIT4–APEX2 (rigid linker) expressed in SK-N-SH cells; 1 mM biotin tyramide 45 min at 37 °C with or without 330 μM NaAsO2, 1 mM H2O2 for 1.5 min; biotinylated proteins captured on streptavidin magnetic particles and identified by LC-MS/MS; proteins labelled by APEX2 alone filtered out).

Molecule	binding
NKX2-5 (from UniProt P52952 1-324)	binds
ALPK2 (from UniProt Q86TB3 1-2170)	binds
KRT6C (from UniProt P48668 1-564)	binds
KRT32 (from UniProt Q14532 1-448)	binds
ASCC3 (from UniProt Q8N3C0 1-2202)	binds
GNB1 (from UniProt P62873 1-340)	binds
KRT34 (from UniProt O76011 1-394)	binds
keratin 17 (KRT17) (from UniProt Q04695 1-432)	binds
KRT33A (from UniProt O76009 1-404)	binds
RAB11A (from UniProt P62491 1-216)	binds
LYAR (from UniProt Q9NX58 1-379)	binds
LCK (from UniProt P06239 1-509)	binds
KRT33B (from UniProt Q14525 1-404)	binds
PTPN11 (from UniProt Q06124 1-593)	binds
NOTCH2 (from UniProt Q04721 26-2471)	binds
EIF3G (from UniProt O75821 1-320)	binds
CDK5 (from UniProt Q00535 1-292)	binds
vimentin (VIM) (from UniProt P08670 1-466)	binds
NME/NM23 nucleoside diphosphate kinase 1 (NME1) (from UniProt P15531 1-152)	binds
KRT73 (from UniProt Q86Y46 1-540)	binds
OBSL1 (from UniProt O75147 1-1896)	binds
protein phosphatase 2 scaffold subunit A (PPP2R1A) (from UniProt P30153 1-589)	binds
KRT71 (from UniProt Q3SY84 1-523)	binds
KRT31 (from UniProt Q15323 1-416)	binds
structural maintenance of chromosomes 3 (SMC3) (from UniProt Q9UQE7 1-1217)	binds
DLEC1 (from UniProt Q9Y238 1-1755)	binds
ACSS2 (from UniProt Q9NR19 1-701)	binds
KRT13 (protein, UniProt P13646 1-458) MSLRLQSSSASYGGGFGGGSCQLGGGRGVSTCSTRFVSGGSAGGYGGGVSCGFGGGAGSGFGGGYGGGLGGGYGGGLGGGFGGGFAGGFVDFGACDGGLLTGNEKITMQNLNDRLASYLEKVRALEEANADLEVKIRDWHLKQSPASPERDYSPYYKTIEELRDKILTATIENNRVILEIDNARLAADDFRLKYENELALRQSVEADINGLRRVLDELTLSKTDLEMQIESLNEELAYMKKNHEEEMKEFSNQVVGQVNVEMDATPGIDLTRVLAEMREQYEAMAERNRRDAEEWFHTKSAELNKEVSTNTAMIQTSKTEITELRRTLQGLEIELQSQLSMKAGLENTVAETECRYALQLQQIQGLISSIEAQLSELRSEMECQNQEYKMLLDIKTRLEQEIATYRSLLEGQDAKMIGFPSSAGSVSPRSTSVTTTSSASVTTTSNASGRRTSDVRRP	binds
KRT82 (protein, UniProt Q9NSB4 1-513) MSYHSFQPGSRCGSQSFSSYSAVMPRMVTHYAVSKGPCRPGGGRGLRALGCLGSRSLCNVGFGRPRVASRCGGTLPGFGYRLGATCGPSACITPVTINESLLVPLALEIDPTVQRVKRDEKEQIKCLNNRFASFINKVRFLEQKNKLLETKWNFMQQQRCCQTNIEPIFEGYISALRRQLDCVSGDRVRLESELCSLQAALEGYKKKYEEELSLRPCVENEFVALKKDVDTAFLMKADLETNAEALVQEIDFLKSLYEEEICLLQSQISETSVIVKMDNSRELDVDGIIAEIKAQYDDIASRSKAEAEAWYQCRYEELRVTAGNHCDNLRNRKNEILEMNKLIQRLQQETENVKAQRCKLEGAIAEAEQQGEAALNDAKCKLAGLEEALQKAKQDMACLLKEYQEVMNSKLGLDIEIATYRRLLEGEEHRLCEGIGPVNISVSSSKGAFLYEPCGVSTPVLSTGVLRSNGGCSIVGTGELYVPCEPQGLLSCGSGRKSSMTLGAGGSSPSHKH	binds
